The results in this text go back to US4234546A, “Liquid/liquid extraction of nickel values” (Shell Oil Company, priority 1977, dated 1980).

Data set [1] is described as follows: Nickel extraction yield versus extraction time, chloroform extractant, in presence of iron (III) (Example X, Comparative Experiment III). The conditions noted are these: pH 1.5, 30° C. The text has this:
(§1) To be successful in application to commercial nickel extraction processes, the ligands must be able to complex with the nickel values both rapidly and completely. The rate of transfer of nickel values from an aqueous to organic phase in such an extraction process is conventionally expressed in terms of "extraction yield," which is defined by means of the following illustration. When an aqueous solution containing nickel values has been contacted, with agitation, for a period of, say, "t" minutes with the organic extractant, a sample is drawn from the mixture while agitation is continued. This sample is allowed to separate into an aqueous phase and an organic phase and the nickel content of the organic phase--indicated as "a" mg Ni/l--is determined. When, after prolonged agitation of the aqueous layer with the organic solution, equilibrium has been reached, the mixture is separated into an aqueous phase and an organic phase and the nickel content of the organic phase and an organic phase and the nickel content of the organic phase--indicated as "b" mg Ni/l--is determined. The extraction yield after t minutes' agitation, expressed as a percentage, is defined as
(§2) The stirrer speed was 2000 revolutions per minute.
Temperature of the batch extraction was held at 30° C. The general procedures of Examples VI-IX were otherwise followed. Table IV presents the results of Example X and of Comparative Experiment III, carried out in the same general manner but utilizing dioxime A.

The nature of data set [2]: Nickel extraction yield versus extraction time, toluene extractant (Examples VI-IX, Comparative Experiment II). The settings on record: pH 3.0, 50° C.
Excerpt: as §1, §2
The temperature was kept at 50° C. At various time intervals a sample was drawn from the mixture while stirring was continued. After separation of the layers of the sample, the nickel content of the organic layer was determined. When stirring had been continued for a total of two hours, the mixture was taken to be in equilibrium and stirring was stopped. The two phases in the vessel were allowed to separate and the nickel content of the organic phase was determined, followed by calculation of the extraction yield.
Four mixtures of dioximes were tested in this manner.

Structures are written as SMILES.

`CCCCCCCC(=NO)C(CCCCCCC)=NO` [Dioxime A, 8,9-hexadecanedione dioxime]: the Extraction yield was found to be 3% in data set [1] (1 min); 5% in data set [1] (2 min); 7% in data set [1] (3 min); 9% in data set [1] (4 min); 11% in data set [1] (5 min); 19% in data set [1] (10 min). The Extraction yield in data set [1] (15 min) was 27%; in data set [1] (30 min), 49%; in data set [2] (0.5 min), 5%; in data set [2] (1.0 min), 9%; in data set [2] (1.5 min) it was 13%; in data set [2] (2.0 min), 17%. The results for the Extraction yield in data set [2] (3.0 min), in data set [2] (5.0 min) and in data set [2] (10.0 min) were 23%, 33% and 54%, respectively.
